PubChem BioAssay AID1259254, NCATS – 2017
Purpose: 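Genome-wide screen for genes that prevent DNA re-replication in cancer cells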 (primary screen). Cells: human HCT116 colorectal cancer cells. Reagents: single siRNA against human genes. Timing: 3 days. Detection: 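Nuclei stained with Hoechst and imaged; cell-cycle phase assigned by DNA content; G2 share scaled per plate, non-targeting siRNA 0%, GMNN siRNA 100%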. Reading the numbers: G2 robust z-score: higher = more G2 cells, more excess DNA replication. Rule for the call: 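Active siRNAs have a G2 robust z of 5 or more median absolute deviations over the median, which in these data means about 38% or higher of GMNN control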.
Shown is an unselected part of about 59,000 deposited reagents. Of all reagents, about 1,550 (2.6%) are marked active. 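G2 share is only a proxy for re-replication; each gene was hit by three separate siRNAs, and active genes were retested.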 The numbers tell different reagents against one gene apart. Further read-outs or replicates are left out here. Reagent sequences are not shown. Not stated in the record: the amount of reagent.

target gene | reagent | G2 robust z-score | call
DNAJA4 (GeneID 55466) | 1 | 0.185 | inactive
DNAJA4 (GeneID 55466) | 2 | -1.22 | inactive
DNAJA4 (GeneID 55466) | 3 | -0.959 | inactive
SGMS2 (GeneID 166929) | 1 | 2.75 | inactive
SGMS2 (GeneID 166929) | 2 | 0 | inactive
SGMS2 (GeneID 166929) | 3 | -0.332 | inactive
OR2L2 (GeneID 26246) | 1 | 3.51 | inactive
OR2L2 (GeneID 26246) | 2 | -0.132 | inactive
OR2L2 (GeneID 26246) | 3 | -0.269 | inactive
LHCGR (GeneID 3973) | 1 | 0.00615 | inactive
LHCGR (GeneID 3973) | 2 | -0.392 | inactive
LHCGR (GeneID 3973) | 3 | 0.353 | inactive
ZNF506 (GeneID 440515) | 1 | -0.625 | inactive
ZNF506 (GeneID 440515) | 2 | -0.636 | inactive
ZNF506 (GeneID 440515) | 3 | 2.9 | inactive

Laid out differently: results already given
DNAJA4 (GeneID 55466) #2
- G2 robust z-score: -1.22
- call: inactive

DNAJA4 (GeneID 55466) #3
- G2 robust z-score: -0.959
- call: inactive

Additional reagents follow.
target gene | reagent | G2 robust z-score | call
MYL3 (GeneID 4634) | 1 | 0.0748 | inactive
MYL3 (GeneID 4634) | 2 | -0.11 | inactive
MYL3 (GeneID 4634) | 3 | -0.00256 | inactive
TCP10L (GeneID 140290) | 1 | -1.12 | inactive
TCP10L (GeneID 140290) | 2 | -0.455 | inactive
TCP10L (GeneID 140290) | 3 | -0.777 | inactive
NOBOX (GeneID 135935) | 1 | -0.162 | inactive
NOBOX (GeneID 135935) | 2 | -1.2 | inactive
NOBOX (GeneID 135935) | 3 | -0.256 | inactive
LFNG (GeneID 3955) | 1 | -0.705 | inactive
LFNG (GeneID 3955) | 2 | 0.05 | inactive
LFNG (GeneID 3955) | 3 | -1.36 | inactive
CCNYL3 (GeneID 102724928) | 1 | 1.75 | inactive
CCNYL3 (GeneID 102724928) | 2 | -0.159 | inactive
CCNYL3 (GeneID 102724928) | 3 | 1.1 | inactive
